From publication PMC7917804
Numbering of substitutions follows the chain as printed. No constants are given. Whether binding was seen depends on the method and setting. Binding seen in cells or lysates may run through a third protein. Some binding calls cover weakened binding; strength is not graded here. For part of these data: Tags and fused reporters may be left off the sequences shown.

Amino acid sequences for entries named in this document (tags omitted).
UniProt A5YKK6: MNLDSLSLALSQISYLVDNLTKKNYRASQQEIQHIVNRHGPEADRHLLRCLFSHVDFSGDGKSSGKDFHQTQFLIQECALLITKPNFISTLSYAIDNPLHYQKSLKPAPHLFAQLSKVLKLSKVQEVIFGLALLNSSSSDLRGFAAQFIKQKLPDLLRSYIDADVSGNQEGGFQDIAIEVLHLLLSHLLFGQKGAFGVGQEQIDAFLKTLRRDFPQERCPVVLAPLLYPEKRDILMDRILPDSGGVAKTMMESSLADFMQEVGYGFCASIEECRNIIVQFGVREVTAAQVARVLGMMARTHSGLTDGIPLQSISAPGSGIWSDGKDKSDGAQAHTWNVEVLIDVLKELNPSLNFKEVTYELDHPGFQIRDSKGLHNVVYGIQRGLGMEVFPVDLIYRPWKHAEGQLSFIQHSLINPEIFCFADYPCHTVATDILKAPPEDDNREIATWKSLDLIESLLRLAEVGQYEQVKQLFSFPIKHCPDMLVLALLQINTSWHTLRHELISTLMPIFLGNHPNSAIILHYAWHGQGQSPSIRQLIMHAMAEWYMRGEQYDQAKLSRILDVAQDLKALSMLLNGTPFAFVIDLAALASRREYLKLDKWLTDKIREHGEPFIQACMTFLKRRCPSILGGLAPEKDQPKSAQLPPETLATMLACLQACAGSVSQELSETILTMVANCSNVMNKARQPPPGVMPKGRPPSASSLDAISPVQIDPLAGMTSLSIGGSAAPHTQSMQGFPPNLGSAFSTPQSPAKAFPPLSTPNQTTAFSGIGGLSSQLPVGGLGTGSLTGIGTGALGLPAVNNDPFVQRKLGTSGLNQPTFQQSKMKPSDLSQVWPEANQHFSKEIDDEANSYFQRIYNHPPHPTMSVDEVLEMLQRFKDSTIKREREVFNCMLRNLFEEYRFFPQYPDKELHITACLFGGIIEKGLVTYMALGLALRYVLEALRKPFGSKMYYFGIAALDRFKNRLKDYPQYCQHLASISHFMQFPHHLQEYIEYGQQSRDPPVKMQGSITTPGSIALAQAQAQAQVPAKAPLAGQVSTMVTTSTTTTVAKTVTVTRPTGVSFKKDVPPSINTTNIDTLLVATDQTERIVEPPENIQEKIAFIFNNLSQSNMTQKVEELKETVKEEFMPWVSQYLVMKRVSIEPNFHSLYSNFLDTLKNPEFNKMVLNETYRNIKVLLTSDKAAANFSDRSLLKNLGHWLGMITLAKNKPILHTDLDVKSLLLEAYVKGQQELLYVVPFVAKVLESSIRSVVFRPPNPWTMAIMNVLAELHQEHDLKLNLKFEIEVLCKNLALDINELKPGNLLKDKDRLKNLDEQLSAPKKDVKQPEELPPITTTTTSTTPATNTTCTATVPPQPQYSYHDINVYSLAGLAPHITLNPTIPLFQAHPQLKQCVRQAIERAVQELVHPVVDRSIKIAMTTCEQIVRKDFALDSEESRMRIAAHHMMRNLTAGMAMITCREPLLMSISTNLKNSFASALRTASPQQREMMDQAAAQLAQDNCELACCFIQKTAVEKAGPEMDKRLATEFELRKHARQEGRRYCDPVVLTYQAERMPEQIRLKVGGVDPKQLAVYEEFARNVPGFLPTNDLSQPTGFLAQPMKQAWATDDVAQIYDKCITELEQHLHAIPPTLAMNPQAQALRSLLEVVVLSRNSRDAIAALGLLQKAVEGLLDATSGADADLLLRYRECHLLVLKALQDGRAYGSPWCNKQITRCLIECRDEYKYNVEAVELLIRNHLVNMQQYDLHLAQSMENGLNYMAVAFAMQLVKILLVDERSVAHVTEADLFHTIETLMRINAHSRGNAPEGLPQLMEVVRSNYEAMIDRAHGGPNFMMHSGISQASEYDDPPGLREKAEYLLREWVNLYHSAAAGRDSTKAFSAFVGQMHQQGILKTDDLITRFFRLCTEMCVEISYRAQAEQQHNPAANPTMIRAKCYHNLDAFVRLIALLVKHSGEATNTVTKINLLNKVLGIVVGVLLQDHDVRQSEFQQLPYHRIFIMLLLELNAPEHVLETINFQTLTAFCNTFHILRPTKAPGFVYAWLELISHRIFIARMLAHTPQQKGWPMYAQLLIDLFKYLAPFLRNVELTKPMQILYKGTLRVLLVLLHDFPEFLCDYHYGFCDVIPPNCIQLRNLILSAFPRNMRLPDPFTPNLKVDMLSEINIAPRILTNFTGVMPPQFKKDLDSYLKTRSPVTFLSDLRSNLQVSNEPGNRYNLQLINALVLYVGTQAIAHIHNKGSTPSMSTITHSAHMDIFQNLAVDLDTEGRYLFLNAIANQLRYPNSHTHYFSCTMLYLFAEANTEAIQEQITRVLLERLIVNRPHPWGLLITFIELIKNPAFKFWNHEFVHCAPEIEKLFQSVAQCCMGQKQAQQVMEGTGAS
UniProt Q92600: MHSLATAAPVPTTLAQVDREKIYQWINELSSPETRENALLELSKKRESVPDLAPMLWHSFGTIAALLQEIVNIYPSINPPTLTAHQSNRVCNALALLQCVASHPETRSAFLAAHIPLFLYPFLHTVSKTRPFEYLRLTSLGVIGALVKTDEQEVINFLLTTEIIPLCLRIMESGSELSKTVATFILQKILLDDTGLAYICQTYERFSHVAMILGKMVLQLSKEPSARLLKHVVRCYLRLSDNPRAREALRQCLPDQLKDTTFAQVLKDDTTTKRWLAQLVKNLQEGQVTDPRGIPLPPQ

Legend:
Assay in all cases: co-IP; lysates of HeLa cells expressing FHS-tagged TNRC6A-SD fragments (collected 24 h after transfection) or full-length TNRC6A (36 h), anti-FLAG antibody beads 2 h at 4 °C, lysis buffer with 140 mM NaCl, wash buffer with 300 mM NaCl and 0.5% NP40; endogenous CNOT1, CNOT9 and PABP detected by Western …
[1] = molecular target: T1, FHS-TNRC6A-SD-S1332A/S1346A (human) (UniProt Q8NDV7)
T1 sequence: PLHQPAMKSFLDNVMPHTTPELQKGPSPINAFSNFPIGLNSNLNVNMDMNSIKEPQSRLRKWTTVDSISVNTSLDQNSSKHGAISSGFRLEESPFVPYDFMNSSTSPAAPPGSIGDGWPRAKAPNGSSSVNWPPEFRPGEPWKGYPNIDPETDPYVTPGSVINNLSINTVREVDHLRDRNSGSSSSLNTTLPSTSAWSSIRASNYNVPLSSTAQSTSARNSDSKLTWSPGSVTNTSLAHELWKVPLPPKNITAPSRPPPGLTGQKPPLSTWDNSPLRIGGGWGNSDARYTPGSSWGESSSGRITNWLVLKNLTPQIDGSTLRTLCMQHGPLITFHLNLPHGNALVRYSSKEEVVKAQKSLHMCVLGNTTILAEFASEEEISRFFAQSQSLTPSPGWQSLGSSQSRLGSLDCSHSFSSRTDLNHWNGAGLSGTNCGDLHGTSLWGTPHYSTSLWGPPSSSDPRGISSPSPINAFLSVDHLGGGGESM

[2] = molecular target: T2, FLAG-HA-SBP (FHS)-tagged TNRC6A-SD-WT (human) (UniProt Q8NDV7)
T2 sequence: T1 sequence with A109S, A123S

[3] = molecular target: T3, FHS-TNRC6A-SD-S1332D/S1346D (human) (UniProt Q8NDV7)
T3 sequence: T1 sequence with A109D, A123D

[4] = molecular target: FLAG-HA-SBP (FHS)-tagged full-length TNRC6A, wild type (human) (UniProt Q8NDV7)
[5] = molecular target: FHS-FL-TNRC6A-S1616D/S1691D (human) (UniProt Q8NDV7)
[6] = molecular target: FHS-FL-TNRC6A-S1332D/S1346D (human) (UniProt Q8NDV7)

Row | binding [1] | binding [2] | binding [3] | binding [4] | binding [5] | binding [6] | Substance
1 | binds | binds | binds | binds | binds | binds | CNOT1 (from UniProt A5YKK6 1-2376)
2 | binds | binds | binds | binds | binds | binds | CNOT9 (from UniProt Q92600 1-299)
